In PMC7330101:
Results are given in words; binding and its absence hold for the method and conditions named. In cells and extracts the contact can be indirect. Some binding calls cover weakened binding; strength is not graded here.

Amino acid sequences for entries named in this document (tags omitted).
UniProt P35222: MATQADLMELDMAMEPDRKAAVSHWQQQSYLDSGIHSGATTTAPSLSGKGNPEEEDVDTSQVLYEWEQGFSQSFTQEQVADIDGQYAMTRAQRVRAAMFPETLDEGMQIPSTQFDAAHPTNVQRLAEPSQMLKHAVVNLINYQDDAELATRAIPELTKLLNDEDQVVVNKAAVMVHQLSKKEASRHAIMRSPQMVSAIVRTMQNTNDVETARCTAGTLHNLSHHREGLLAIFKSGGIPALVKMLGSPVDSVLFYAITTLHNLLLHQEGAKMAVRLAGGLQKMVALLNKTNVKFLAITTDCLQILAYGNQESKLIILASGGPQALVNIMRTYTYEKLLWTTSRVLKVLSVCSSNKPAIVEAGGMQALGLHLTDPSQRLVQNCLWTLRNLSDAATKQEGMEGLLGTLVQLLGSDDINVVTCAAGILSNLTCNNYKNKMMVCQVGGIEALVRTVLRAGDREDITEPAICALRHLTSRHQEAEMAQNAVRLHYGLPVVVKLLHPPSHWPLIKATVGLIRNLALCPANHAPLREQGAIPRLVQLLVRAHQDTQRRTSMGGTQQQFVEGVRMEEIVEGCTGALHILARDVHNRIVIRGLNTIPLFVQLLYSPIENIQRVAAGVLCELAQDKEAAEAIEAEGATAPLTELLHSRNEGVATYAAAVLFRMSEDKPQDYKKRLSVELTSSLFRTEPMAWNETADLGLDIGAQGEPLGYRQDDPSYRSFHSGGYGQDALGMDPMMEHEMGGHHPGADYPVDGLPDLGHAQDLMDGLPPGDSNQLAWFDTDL

Molecular target: β-catenin (human (endogenous in HUVECs)) (UniProt P35222)
Assay: co-IP; HUVEC lysate (25 mmol/L Tris-HCl pH 7.4, 150 mmol/L NaCl, 0.5% NP-40, 0.5% sodium deoxycholate, 5 mmol/L EDTA); antibody against β-catenin or control IgG overnight at 4°C, protein A or G beads, Western blot; static cells, or cells exposed to PS or OS for 6 h

With Nesprin1 (from UniProt Q8NF91 1-8797) the binding was “binds”.
